PubChem BioAssay AID1259425 | University of Nebraska Medical Center – 2018
Aim: 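Seek colon cancer weak points whose silencing resembles KSR1 loss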 (primary screen). Cells: HCT116 human colon cancer cells. Reagent: siRNA pool against human genes, 50 nM siRNA. Measured: 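mRNA of six signature genes measured together by branched-DNA assay after 50 nM siRNA pool, blank removed, divided by geometric mean of two housekeeping genes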. Direction: BNIP3L mRNA: higher = more BNIP3L transcript after knockdown.
Shown is a random part of about 14,000 deposited reagents. Further read-outs or replicates are left out here. No sequences are given here. Not stated in the record: the time to read-out.

no.	target	BNIP3L mRNA, set 1
1	ANKRD53	0.0779
2	TMEM40	0.0939
3	KCNK16	0.398
4	RPS4X	0.0975
5	NKX2-1	0.0698
6	UTY	0.226
7	KIFC2	0.279
8	CHAF1A	0.223
9	PLA2G6	0.198
10	CLINT1	0.138
11	RBM48	0.212
12	PCDHGB7	0.0795
13	SLC2A4	0.0953
14	IFNK	0.281
15	FXYD1	0.059
16	SLC9A2	0.0747
17	DALRD3	0.0725
18	GPR4	0.109
19	LAMB4	0.104
20	ALPK2	0.0962
21	GRM4	0.166

3 entries from above, reformatted.
target | BNIP3L mRNA, set 1
CLINT1 | 0.138
RBM48 | 0.212
PCDHGB7 | 0.0795

The list goes on.
no.	target	BNIP3L mRNA, set 1
22	TMEM164	0.214
23	PDCD1	0.233
24	NDUFAF3	0.159
25	OR1J4	0.0913
26	RBFA	0.195
27	ETV3	0.0824
28	R3HDM1	0.093
29	COMP	0.0649
30	CIAPIN1	0.208
31	CYP46A1	0.0536
32	BLVRB	0.141
33	NXF2	0.139
34	NWD2	0.127
